# Results deposited as PubChem BioAssay AID686943 (Drosophila RNAi Screening Center, 2013)
# Test: 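Knockdowns that increase or decrease active ERK after insulin receptor stimulation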 (primary screen)
# Cell system: Drosophila S2R+ haemocyte-like cells expressing YFP-tagged ERK (Rolled)
# Reagents: long dsRNA against Drosophila genes
# Treatment: insulin stimulation versus unstimulated cells; dose and duration not given
# Detection: 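Antibody staining for doubly phosphorylated ERK divided by ERK-YFP signal, as plate z-scores, in insulin-treated and untreated cells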
# Scale: replicate 1, z-score of dpERK with insulin and replicate 2, z-score of dpERK with insulin: higher = more active ERK per ERK-YFP after insulin; replicate 1, z-score of dpERK under basal conditions: higher = more basal active ERK per ERK-YFP; replicate 1, z-score of ERK-YFP with insulin: higher = more YFP-tagged ERK signal
# In all, the deposit lists about 23,000 reagents; below is a random part of those that have a named target and a result. 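Extra replicates exist only for a retested subset of genes; insulin dose and duration not given; both raised and lowered dpERK matter.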 Names joined by + are all predicted targets of the reagent. Not stated in the record: the amount of reagent, the time to read-out.
predicted target,amplicon,"replicate 1, z-score of dpERK with insulin","replicate 2, z-score of dpERK with insulin","replicate 1, z-score of dpERK under basal conditions","replicate 1, z-score of ERK-YFP with insulin"
CG7691,DRSC16287,0.48,-0.52,-0.1,-0.06
Ist1,DRSC09697,0.36,1.06,-0.98,1.63
eIF3b,DRSC06900,-1.49,-1.07,-2.09,-0.22
Oga,DRSC15901,-0.15,0.44,0.61,0.23
Bx42,DRSC17743,-2.55,1.86,-0.93,-4.32
CG13887,DRSC08357,-0.42,-0.03,-2.19,0.09
sds22,DRSC17052,0.34,0.5,-0.99,0.29
CG13829,DRSC14679,-0.05,0.21,0.16,0.35

Next part (2 carried over from the part before).
predicted target,amplicon,"replicate 1, z-score of dpERK with insulin","replicate 2, z-score of dpERK with insulin","replicate 1, z-score of dpERK under basal conditions","replicate 1, z-score of ERK-YFP with insulin"
sds22,DRSC17052,0.34,0.5,-0.99,0.29
CG13829,DRSC14679,-0.05,0.21,0.16,0.35
Cad89D,DRSC15022,1.67,0.47,-1.37,-0.6
CG17110,DRSC15173,-0.4,0.7,0.3,0.35
krz,DRSC16979,-0.05,-0.77,0.75,-0.06
asRNA:CR43463 + Pgant35A,DRSC03557,0.25,0.14,1.2,0.03
slif,DRSC11635,-0.15,0.08,0.4,0.13
Sema5c,DRSC11279,1.06,1.11,0.41,-0.46
BomT3,DRSC13537,-0.09,1.94,0.56,-0.12
BomT3,DRSC15871,1.07,-0.84,0.72,1.01
CG4892,DRSC01937,-0.57,-0.3,0.7,-0.25
CG13506,DRSC04150,-0.01,2.17,-1.3,0.12
TpnC73F,DRSC11307,0.09,0.3,0.56,0.49
CG34434,DRSC18134,-2,-0.83,-0.48,0.63
ltl,DRSC10206,0.25,0.66,-0.3,0.61
ltl,DRSC10870,-0.52,0.43,1.06,0.31
CG8564,DRSC10997,0.42,0.11,0.59,-0.32
